Measured values: PubChem BioAssay AID493014 (National Center for Advancing Translational Sciences (NCATS), 2011)
This is one part of the list. Further columns of the screen follow, without active or inactive calls. Most of these compounds were active or inconclusive in the main read-out, so they are no random draw. Words in brackets tell the shape of the fitted curve; partial curves, single points and poor fits give uncertain potencies.

Test: qHTS Assay to Find Inhibitors of Chronic Active B-Cell Receptor Signaling
Settings: ABC-DLBCL IkBa-CBG/CBR reporter, luminescence ratio (green luciferase fused to IkBa over red control in TMD8 lymphoma cells), 4 h
How it was run: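 Cell line TMD8 (human ABC DLBCL), stably expressing tet-inducible CBG68-IkBa fusion and CBR; IMDM/0.5% FBS; cpd up to 46 uM; dox induction, 4 h, 37C/5% CO2; dual luminescence; green/red ratio; MG132 control.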

[1] = measured here: CBR red luminescence, cell number
[2] = measured here: IkBa-CBG green luminescence

SMILES | AC50 [1] | AC50 [2]
Cc1ccc(N(CC(=O)NCC2CCCO2)S(C)(=O)=O)cc1Cl (stereo not given) | 14.6 µM [rising, single point] | –
COc1ccc(N2CC(C)Cn3c2nc2c3c(=O)n(Cc3ccccc3)c(=O)n2C)c(OC)c1 (stereo not given) | 14.1 µM [falling, single point] | –
C/C(=N\Nc1nnc2c3ccccc3n(C)c2n1)c1ccc(C)o1 | 18.4 µM [falling, partial curve, poor fit] | –
O=C(c1ccccc1)c1cnc(-c2ccc(Cl)cc2)s1 | 0.891 µM [falling, full curve, poor fit] | –
CCn1c(=O)cc(OCC(=O)NCCC(C)C)c2ccccc21 | 16.4 µM [rising, partial curve, poor fit] | –
CCCCN(CCCC)S(=O)(=O)c1ccc(NC(=O)c2cccs2)cc1 | – | 16.4 µM [rising, partial curve, poor fit]
O=C(O)c1cc(-c2cccc(Cl)c2)nc2nc(N3CCCCC3)sc12 | 13 µM [rising, partial curve] | –
Cc1c(N=C(N)/N=C(\N)Nc2ccc(Br)cc2)c(=O)n(-c2ccccc2)n1C | 18.4 µM [falling, partial curve, poor fit] | –
COc1ccc(-n2c(SCC(=O)Nc3ccc(Cl)c(C)c3)nc3n[nH]c(C)c3c2=N)cc1 | 12.6 µM [falling, single point] | –
CCCCc1nc2cc(C(=O)NC3CCOC(C)(C)C3)ccc2o1 (stereo not given) | 15.8 µM [rising, partial curve, poor fit] | –
O=C(COc1ccc(Cl)cc1Cl)NCc1ccncc1 | 6.31 µM [rising, full curve] | –
CCOC(=O)c1c(NC(=O)c2ccc(S(=O)(=O)N3CCC(C)CC3)cc2)sc2c1CCN(C)C2 | 10 µM [rising, partial curve, poor fit] | –
N#Cc1ccc(C(=O)Nc2nc(SCc3ccc(Cl)cc3)n[nH]2)cc1 | 35.5 µM [falling, partial curve, poor fit] | –
Cc1ccc(N2CC(C(=O)Nc3nc4ccc(S(C)(=O)=O)cc4s3)CC2=O)cc1C (stereo not given) | 35.5 µM [falling, single point] | –
CCC(=O)NCCc1nc2cc(NC(=O)c3ccccc3Cl)ccc2n1C | 10 µM [falling, partial curve] | –
C/C(=N\NC(=O)c1ccc(Cl)cc1)c1cccs1 | 35.5 µM [falling, single point] | –
O=C(Nc1nc2ccccc2[nH]1)c1ccc(Cl)cc1 | 0.794 µM [falling, full curve] | –
CCc1ccc2oc(C(=O)N3CCN(C)CC3)cc(=O)c2c1 | 17.8 µM [falling, single point] | –
CCCOC(=O)Nc1cccc(C(C)=O)c1 | 2.31 µM [rising, full curve] | –
Cc1ccc(NC(=O)Cn2c(O)c(N=NC(=O)c3ccncc3)c3ccccc32)cc1 | 8.91 µM [rising, partial curve, poor fit] | –
CCOC(=O)c1ccc(Oc2nc(NC(C)(C)C)nc(N(C)C)n2)cc1 | 29.1 µM [falling, single point] | –

SMILES | AC50 [1] | AC50 [2]
COc1cccc(C(=O)N/N=C2/SCC(=O)N2CCc2ccc(OC)c(OC)c2)c1 | 5.8 µM [falling, single point] | –
COc1ccc(Cl)cc1NC(=O)CN1CCCCCC1 | 12.6 µM [falling, partial curve] | –
CCCCC1C(=O)CC[C@H]2[C@@H]1CC(=O)[C@@H]2C/C=C\CCCC(=O)O (stereo not given in full) | – | 5.8 µM [falling, partial curve]
O=C(COC(=O)CSc1ccc([N+](=O)[O-])cc1)NCCCc1ccccc1 | 7.94 µM [falling, partial curve] | –
O=C(COC(=O)/C=C/c1cccs1)Nc1ccccc1Cl | 0.794 µM [falling, full curve, poor fit] | –
CC(=O)Nc1cc(C(=O)NCc2ccccc2Cl)ccc1Sc1ccc(F)cc1 | 0.891 µM [rising, full curve, poor fit] | –
Cc1ccccc1/C=N/NC(=O)c1sccc1C | 14.6 µM [falling, partial curve] | –
CSc1ccccc1NC(=O)c1cc(Cl)sc1Cl | 1.26 µM [rising, full curve, poor fit] | –
CCN(CC)S(=O)(=O)c1ccc(NC2c3ccccc3C(=O)N2Cc2ccc3c(c2)OCO3)cc1 (stereo not given) | 0.0058 µM [falling, full curve, poor fit] | –
O=C1C=C(c2cccc3c2oc2ccccc23)C[C@@H](c2ccc(F)cc2)C1 | 2.59 µM [rising, full curve] | –
CN(C)/C=N/NC(=O)c1ccccc1 | 1.78 µM [falling, partial curve, poor fit] | –
O=C(Nc1ccccc1)c1ccc(-c2ccc(Br)cc2)o1 | 29.1 µM [falling, single point] | –
COc1cc2c(cc1OC)C1=CC(=O)C(=O)N1C(C)(C)C2 | 2 µM [rising, full curve, poor fit] | 7.94 µM [falling, partial curve, poor fit]
COc1ccc(-c2csc(Nc3ccccn3)n2)cc1OC | 22.4 µM [falling, single point] | –
COc1ccc2[nH]c3c(N4CCC(O)(c5cccc(C(F)(F)F)c5)CC4)ncnc3c2c1 | 35.5 µM [falling, single point] | –
C/C(=N/NS(C)(=O)=O)c1ccc2ccccc2c1 | 14.6 µM [rising, partial curve, poor fit] | –
CC(C)c1cc(C(=O)Nc2ccc3c(c2)OCO3)no1 | 4.11 µM [falling, full curve] | –
CCOC(=O)c1sc2nc(N3CCCC3)c3c(c2c1N)CC(C)(C)OC3 | 0.316 µM [rising, full curve, poor fit] | –
COC(=O)C1=C(C)N(CC(C)C)C(=O)/C1=C\c1cccs1 | 1.03 µM [rising, full curve, poor fit] | –
Cc1cc(C)cc(OCC(O)CN2CCC(CN3C(=O)c4cccc5cccc(c45)C3=O)CC2)c1 (stereo not given) | 35.5 µM [rising, single point] | –
CC(=O)Nc1ccc2nc(-c3ccccn3)[nH]c2c1 | 7.08 µM [falling, partial curve, poor fit] | –

SMILES | AC50 [1] | AC50 [2]
Cc1ccc(S(=O)(=O)Nc2c(Cl)c(Cl)c(O)c3ccccc23)cc1 | 35.5 µM [falling, single point] | –
CCN1CCN(Cc2ccc(NC(=O)c3cc(NC(=O)c4nccnc4N)cc(OC)c3)cc2C(F)(F)F)CC1 | 35.5 µM [falling, single point] | –
O=C(/C=C\Nc1cccc(F)c1)c1ccc2c(c1)OCO2 | 7.94 µM [falling, partial curve] | –
Cc1oc(-c2ccc(Cl)cc2)nc1CN1CCC(C(=O)NCc2cccnc2)CC1 | 35.5 µM [falling, single point] | –
C/C(=N\Nc1ccc(Cl)cc1)c1ccccn1 | 0.231 µM [rising, full curve, poor fit] | –
CN(C(=O)COC(=O)c1nc(Cl)c(Cl)c(Cl)c1Cl)C1CCS(=O)(=O)C1 (stereo not given) | 7.08 µM [falling, full curve] | –
COc1cccc(C(C(=O)NC2CCCC2)N(Cc2ccccc2OC)C(=O)c2ccco2)c1 (stereo not given) | 29.1 µM [falling, single point] | –
S=C(NCCc1c[nH]c2ccccc12)NC1CCCCC1 | 1 µM [rising, full curve, poor fit] | –
Cc1ccccc1Nc1nc(N)nc(CSc2nc3ccccc3c(=O)n2CCCO)n1 | 3.98 µM [rising, partial curve, poor fit] | –
CCCNC(=O)c1ccccc1NC(=O)C1COc2ccccc2O1 (stereo not given) | 11.2 µM [rising, partial curve, poor fit] | –
O=C(NCc1nc2ccccc2[nH]1)C1=C[C@H](c2ccccc2)C[C@H](OCCCCO)O1 | 35.5 µM [rising, partial curve, poor fit] | –
CC(C)(C)n1nnnc1C(c1cccs1)N1CCN(c2ccccc2)CC1 (stereo not given) | 29.1 µM [rising, single point] | –
Cc1cc(C)n2ncc(-c3cccc(Br)c3)c2n1 | 6.31 µM [rising, partial curve, poor fit] | –
COc1ccc(CNC(=O)C/C(C)=N/NC(=O)COc2ccc(C)cc2Br)cc1 | 35.5 µM [rising, single point] | 35.5 µM [falling, single point]
CCN1C/C(=N\S(=O)(=O)/N=C2\CN(CC)C(=O)N2CC)N(CC)C1=O | 2.51 µM [rising, full curve, poor fit] | –
Cc1ccc(C(=O)N2CCN(C(=O)c3ccccc3)C2c2ccc(N(C)C)cc2)cc1 (stereo not given) | 29.1 µM [rising, single point] | –
CCN(CC)S(=O)(=O)c1ccc(N/N=C/c2cc(OC)c(OC)cc2OC)nc1 | 32.6 µM [rising, partial curve, poor fit] | –
CCCn1nnc(NC(=O)c2cccc(OCc3ccccc3)c2)n1 | 20.6 µM [falling, single point] | –
CCCCCc1ccc(-c2ccc(/C=C/C(N)=O)cc2)nc1 | 20.6 µM [falling, partial curve] | –
CN(C)c1ccc(-c2cccc(C3CC=CC4C3C(=O)N(Cc3ccccc3)C4c3ccc4ccccc4c3)c2)cc1 (stereo not given) | 31.6 µM [rising, single point] | –
Cc1cccc2sc(N(CCN3CCOCC3)C(=O)CCS(=O)(=O)c3ccccc3)nc12 | 0.92 µM [rising, full curve, poor fit] | –
